From the supplement of paper PMC9226226
Where “and” joins values, the source holds several entries; their conditions need not be identical. Identical values can stand only once. This is one part of the list. Some well-known active drugs show little effect in this data set, so a weak value is uncertain.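 Human mesenchymal stem cells lacking the Werner syndrome gene, which age prematurely, were used. Automated live-cell imaging tracked growth across three biological repeats; the twenty drugs raising growth most relative to vehicle advanced, without a stated fixed cutoff.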

Test system: Werner syndrome hMSCs (WRN-/-)
Test: relative cell density (fold change vs vehicle control); higher = more proliferation (geroprotective)
Details: concentration (umol/L): 1, 6 days

SMILES	relative cell density (vehicle: DMSO)	relative cell density (vehicle: Water)
CC(C)NCC(O)COc1ccc(COCCOC(C)C)cc1 (configuration not stated)	1.04	
O=C1CN2Cc3c(ccc(Cl)c3Cl)N=C2N1	0.696	
Nc1nc(Cl)nc2c1ncn2[C@@H]1O[C@H](CO)[C@@H](O)[C@@H]1F	1.06	
CC(C)C(=O)OCC(=O)[C@@]12O[C@H](C3CCCCC3)O[C@@H]1C[C@H]1[C@@H]3CCC4=CC(=O)C=C[C@]4(C)[C@H]3[C@@H](O)C[C@@]12C	1.25	
CN1CC[C@H](c2c(O)cc(O)c3c(=O)cc(-c4ccccc4Cl)oc23)[C@H](O)C1	0.0334	
COc1cc(S(=O)(=O)O)ccc1O	1.08	
CC(C)(C)NC[C@H](O)COc1nsnc1N1CCOCC1	1.01	
Cc1ccc(C(=O)Nc2ccc(CN3CCN(C)CC3)c(C(F)(F)F)c2)cc1C#Cc1cnc2cccnn12	0.294	
O=C(Nc1cccc2c(=O)cc(-c3nnn[nH]3)oc12)c1ccc(OCCCCc2ccccc2)cc1	0.981	
NCCCC[C@H](N[C@@H](CCc1ccccc1)C(=O)O)C(=O)N1CCC[C@H]1C(=O)O		0.829
CO/N=C(\C(=O)N[C@@H]1C(=O)N2C(C(=O)O)=C(CSc3nc(=O)c(O)nn3C)CS[C@H]12)c1csc(N)n1		1.3
COC1=C(OC)C(=O)C(CCCCCCCCCCO)=C(C)C1=O	0.931	
CCOC(=O)[C@H](CCc1ccccc1)N[C@H]1CCc2ccccc2N(CC(=O)O)C1=O	1.08	
COc1cccc(-c2ccc(NC(=O)C3=C(C(=O)O)CCC3)c(F)c2)c1	1.14	
CCCN[C@H]1CCc2nc(N)sc2C1	1.31 and 1.26 and 1.03	
O=C(NC1CCN(CCCCC2(C(=O)NCC(F)(F)F)c3ccccc3-c3ccccc32)CC1)c1ccccc1-c1ccc(C(F)(F)F)cc1	1.52 and 1.14	
Cc1c(-c2ccnn2C)cc(C(=O)NCc2ccc(S(C)(=O)=O)cn2)c(=O)n1-c1cccc(C(F)(F)F)c1	1.29	
Nc1ncn([C@@H]2O[C@H](CO)[C@@H](O)[C@H]2O)c(=O)n1	1.22	
CC(COc1ccccc1)N(CCCl)Cc1ccccc1 (configuration not stated)	1.19	
CCCNC(C)C(=O)Nc1ccccc1C (configuration not stated)	1.07	
COc1cc(/C=C/C(=O)N2CCN(CC(=O)N3CCCC3)CC2)cc(OC)c1OC	1.27	
Cn1c(=O)cc(N2CCC[C@@H](N)C2)n(Cc2cc(F)ccc2C#N)c1=O	0.693 and 1.26	

SMILES	relative cell density (vehicle: DMSO)	relative cell density (vehicle: Water)
c1ccc(C2CN3CCSC3=N2)cc1 (configuration not stated)		1.42
Nc1ccc(S(=O)(=O)c2ccc(N)cc2)cc1	1.15	
CN(C)CCc1c[nH]c2ccc(Cn3cncn3)cc12	1.04	
OCCN1CCN(CCCN2c3ccccc3Sc3ccc(Cl)cc32)CC1	1.27	
CCC[C@H](N[C@@H](C)C(=O)N1[C@H](C(=O)O)C[C@@H]2CCCC[C@@H]21)C(=O)OCC		0.947
CCCC(=O)O[C@]1(C(=O)COC(C)=O)CC[C@H]2[C@@H]3C[C@H](F)C4=CC(=O)C=C[C@]4(C)[C@@]3(F)[C@@H](O)C[C@@]21C	1.47	
Cn1ncc(Cl)c1-c1cc(C(=O)N[C@H](CN)Cc2ccc(F)c(F)c2)oc1Cl	1.19	
COc1ccc(NS(=O)(=O)c2ccc(N)cc2)nn1	1.21	
CC1(C)OC(=O)NC1=O	0.874	
CC(=O)Oc1cccc2c1C(=O)c1c(OC(C)=O)cc(C(=O)O)cc1C2=O	1.05	
N=C(N)NC(=N)N1CCOCC1	1.02	
N[C@H]1C(O)O[C@H](CO)[C@@H](O)[C@@H]1O (some centres not stated)	1.15	
CN1CCCC(n2nc(Cc3ccc(Cl)cc3)c3ccccc3c2=O)CC1 (configuration not stated)	1.18	
CCCC(=O)Nc1ncnc2c1ncn2[C@@H]1O[C@@H]2COP(=O)(O)O[C@H]2[C@H]1OC(=O)CCC	1.02	
CN(C)CCC[C@@]1(c2ccc(F)cc2)OCc2cc(C#N)ccc21	1.18	
CC(C)C[C@H](NC(=O)[C@H](CCc1ccccc1)NC(=O)CN1CCOCC1)C(=O)N[C@@H](Cc1ccccc1)C(=O)N[C@@H](CC(C)C)C(=O)[C@@]1(C)CO1	0.201	
NC(=O)N/N=C/c1ccc([N+](=O)[O-])o1	1.01	
O=C(O[C@H]1CN2CCC1CC2)N1CCc2ccccc2[C@@H]1c1ccccc1		0.614
CO[C@@H]1[C@@H](OC(N)=O)[C@@H](O)[C@H](Oc2ccc3c(O)c(NC(=O)c4ccc(O)c(CC=C(C)C)c4)c(=O)oc3c2C)OC1(C)C	1.15	
CCN1CCN(C(=O)N[C@@H](C(=O)N[C@@H]2C(=O)N3[C@@H]2SC(C)(C)[C@@H]3C(=O)O)c2ccccc2)C(=O)C1=O	1.06	
C=C=CCNC(=O)c1ccc(F)cc1	1.05	
CCN(CC)CC#CCOC(=O)C(O)(c1ccccc1)C1CCCCC1 (configuration not stated)	1.02	

SMILES	relative cell density (vehicle: DMSO)	relative cell density (vehicle: Water)
Cc1ncc([N+](=O)[O-])n1CCO	1.23	
CCN(Cc1ccncc1)C(=O)C(CO)c1ccccc1 (configuration not stated)	1.04	
CC(C)N1CCN(c2ccc(OCC3COC(Cn4cncn4)(c4ccc(Cl)cc4Cl)O3)cc2)CC1 (configuration not stated)	1.22	
CN1C2CCCC1CC(NC(=O)c1nn(C)c3ccccc13)C2 (configuration not stated)	1.06	0.985
Cc1ccc(C(=O)c2cc(O)c(O)c([N+](=O)[O-])c2)cc1	1.13	
O=C([O-])c1ccccc1O.[Na+]	1.07	
COc1ccc2[nH]cc(CCNC(C)=O)c2c1	1.04	
C=CC[C@@H]1/C=C(\C)C[C@H](C)C[C@H](OC)[C@H]2O[C@@](O)(C(=O)C(=O)N3CCCC[C@H]3C(=O)O[C@H](/C(C)=C/[C@@H]3CC[C@@H](O)[C@H](OC)C3)[C@H](C)[C@@H](O)CC1=O)[C@H](C)C[C@@H]2OC	1.13	
COc1cc(CNC(=O)CCCCC=CC(C)C)ccc1O	0.974	
Cc1ccc(S(=O)(=O)NC(=O)NN2CC3CCCC3C2)cc1 (configuration not stated)	1.13	
COc1nc(C)nc(Cl)c1NC1=NCCN1	1.17	
Cc1ccc(NC(=O)c2ccc(CN3CCN(C)CC3)cc2)cc1Nc1nc(-c2cccnc2)cs1	1.25	
NCCS(=O)(=O)O		1.04
COc1cc2nc(N3CCN(C(=O)c4ccco4)CC3)nc(N)c2cc1OC		0.385
CCCCS(=O)(=O)N[C@@H](Cc1ccc(OCCCCC2CCNCC2)cc1)C(=O)O	0.91	
CC(C)OC(=O)CCC/C=C\C[C@@H]1[C@@H](/C=C/C(F)(F)COc2ccccc2)[C@H](O)C[C@@H]1O		1.06
Oc1c(I)cc(I)c2cccnc12	1.43	
O=C(CCCN1CC=C(n2c(=O)[nH]c3ccccc32)CC1)c1ccc(F)cc1	1.04	
COc1ccc2cc(CCC(C)=O)ccc2c1	1.03	
CCn1cc(C(=O)O)c(=O)c2ccc(C)nc21	1.04	
C[C@H]1[C@@H](O)O[C@@H]2O[C@@]3(C)CC[C@H]4[C@H](C)CC[C@@H]1[C@@]24OO3	0.606	
C#CCN(C)Cc1ccccc1	1.15	
